Results are given in words; binding and its absence hold for the method and conditions named. Binding seen in cells or lysates may run through a third protein. Some results given as binding are weak or reduced against the parent protein; the word gives no strength. Sequences can lack the tags named with a protein.

Chains of the proteins cited; added tags and fusions are not shown. Lines headed by an entry give the natural chain unless they say otherwise; changes in a name come on top.
UniProt P20585: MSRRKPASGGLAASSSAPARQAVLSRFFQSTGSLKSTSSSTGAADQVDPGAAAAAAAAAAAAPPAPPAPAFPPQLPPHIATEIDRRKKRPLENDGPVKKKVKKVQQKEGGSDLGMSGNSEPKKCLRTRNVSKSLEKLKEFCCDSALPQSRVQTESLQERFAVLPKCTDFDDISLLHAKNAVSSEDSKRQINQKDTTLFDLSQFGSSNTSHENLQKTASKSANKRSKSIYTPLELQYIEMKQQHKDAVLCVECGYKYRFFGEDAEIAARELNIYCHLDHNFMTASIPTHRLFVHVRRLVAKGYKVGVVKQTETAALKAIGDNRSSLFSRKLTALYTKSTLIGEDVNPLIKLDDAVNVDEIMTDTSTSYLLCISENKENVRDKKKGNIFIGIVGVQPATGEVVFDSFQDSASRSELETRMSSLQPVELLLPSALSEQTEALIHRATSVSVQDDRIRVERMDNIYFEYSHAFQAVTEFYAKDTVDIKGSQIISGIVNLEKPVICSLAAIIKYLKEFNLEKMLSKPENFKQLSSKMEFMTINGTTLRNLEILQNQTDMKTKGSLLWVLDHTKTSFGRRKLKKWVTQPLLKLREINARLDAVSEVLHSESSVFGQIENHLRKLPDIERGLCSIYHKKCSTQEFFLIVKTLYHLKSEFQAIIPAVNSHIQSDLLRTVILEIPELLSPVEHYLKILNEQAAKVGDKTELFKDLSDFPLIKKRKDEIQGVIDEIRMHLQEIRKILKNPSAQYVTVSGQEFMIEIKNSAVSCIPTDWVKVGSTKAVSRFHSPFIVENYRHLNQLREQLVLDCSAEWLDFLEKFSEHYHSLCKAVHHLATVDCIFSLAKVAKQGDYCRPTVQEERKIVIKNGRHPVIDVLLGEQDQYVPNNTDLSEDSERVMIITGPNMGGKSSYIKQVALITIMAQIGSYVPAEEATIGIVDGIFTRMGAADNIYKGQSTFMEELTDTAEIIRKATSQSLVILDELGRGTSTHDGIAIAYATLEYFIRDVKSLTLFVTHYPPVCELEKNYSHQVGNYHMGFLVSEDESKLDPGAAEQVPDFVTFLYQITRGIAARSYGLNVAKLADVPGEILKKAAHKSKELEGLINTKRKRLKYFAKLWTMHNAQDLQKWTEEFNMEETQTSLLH
UniProt P43246: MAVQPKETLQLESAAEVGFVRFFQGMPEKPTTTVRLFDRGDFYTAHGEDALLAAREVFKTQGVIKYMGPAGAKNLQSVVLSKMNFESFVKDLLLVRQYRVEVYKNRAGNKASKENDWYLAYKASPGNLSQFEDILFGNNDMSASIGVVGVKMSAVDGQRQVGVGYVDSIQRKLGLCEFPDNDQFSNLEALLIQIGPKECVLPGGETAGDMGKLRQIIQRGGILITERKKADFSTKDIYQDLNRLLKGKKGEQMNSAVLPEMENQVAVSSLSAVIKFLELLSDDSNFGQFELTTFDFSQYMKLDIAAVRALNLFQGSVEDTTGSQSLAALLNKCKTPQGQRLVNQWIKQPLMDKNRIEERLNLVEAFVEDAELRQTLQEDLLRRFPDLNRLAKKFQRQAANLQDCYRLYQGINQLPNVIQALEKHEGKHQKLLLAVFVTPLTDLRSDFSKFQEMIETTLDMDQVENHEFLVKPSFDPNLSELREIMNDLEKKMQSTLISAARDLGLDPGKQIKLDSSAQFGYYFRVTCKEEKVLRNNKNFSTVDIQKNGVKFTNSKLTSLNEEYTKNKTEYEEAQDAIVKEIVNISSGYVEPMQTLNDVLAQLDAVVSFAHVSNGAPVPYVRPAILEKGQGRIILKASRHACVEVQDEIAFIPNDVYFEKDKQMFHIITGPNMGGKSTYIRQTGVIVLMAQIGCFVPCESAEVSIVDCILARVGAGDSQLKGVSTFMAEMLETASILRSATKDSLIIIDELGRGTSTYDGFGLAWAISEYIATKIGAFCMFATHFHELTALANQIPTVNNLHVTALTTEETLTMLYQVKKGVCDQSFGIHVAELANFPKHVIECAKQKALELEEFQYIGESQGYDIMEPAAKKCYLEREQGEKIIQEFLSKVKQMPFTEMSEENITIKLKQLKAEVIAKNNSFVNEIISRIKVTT

This test has as its target 3x-Flag-tagged DNA2 (human) (UniProt P51530). Nature of the test: co-IP; whole-cell lysates (0.5% Nonidet P-40, 50 mM Tris-HCl, 0.1 mM EDTA, 150 mM NaCl) with an antibody against a specific protein and Protein A/G magnetic beads; wash with 500 mM NaCl; western blot; IP of DNA2 (Fig. 2c) and IP of MSH2 (Fig. 2d).

On to MSH3 (from UniProt P20585 1-1137), for which the binding entry is “no binding”. As to “MutSα (MSH2-MSH6) (from UniProt P43246 1-934; P52701 1-1360) (complex)”, the binding entry is recorded as “binds”.

The values are drawn from paper PMC12474859.
